PubChem BioAssay AID330 (DTP/NCI, 2004)
The list is a part of this screen's results and no random one: it is rich in T/C values a quarter to a half above the control, in often repeated tests (any T/C) and in doses without a T/C. Further doses and runs are listed elsewhere. T/C gives the treated animals as a percentage of the vehicle group. Some entries give survivors of the animals treated and no T/C: the source files T/C as zero there, which appears to mark a toxic dose or a test without result, not a measured value. Some survivor counts are full or nearly so, which does not show that the dose was tolerated: the source hardly ever lists a survival T/C far under the control, and the zero likely stands for such cases as well. Counts of survivors are from the toxicity check (mostly the fifth day) where no day follows; animals may have died later. Schedule codes are those of the source, taken here to give the interval after Q, in days (D) or hours (H), and the number of doses after X. Some doses were run more than once; their values stand side by side, smallest first. For survival time, the PubChem record calls one and a half times the control and up active, and a quarter to a half above the control has no call in these data; cut-offs in other NCI protocols can differ. Some T/C values carry the count of animals alive at the toxicity check (mostly the fifth day); without a count, all were alive then.

System: P388 leukemia ip, CD2F1 mice, survival T/C
Assay: NCI In Vivo Anticancer Drug Screen. Data for tumor model P388 Leukemia (intraperitoneal) in CD2F1 (CDF1) mice
Settings: T/C endpoint: median survival time, higher T/C = longer survival
[1] = dose: 50.0 mg/kg/injection, schedule: Q01DX009 (ip), vehicle: saline with Tween-80
[2] = dose: 40.0 mg/kg/injection, schedule: Q01DX009 (ip), vehicle: carboxymethylcellulose (CMC)
[3] = dose: 200.0 mg/kg/injection, schedule: Q01DX009 (ip), vehicle: Klucel (hydroxypropylcellulose) (HPC)
[4] = dose: 100.0 mg/kg/injection, schedule: Q04DX003 (ip), vehicle: Klucel (hydroxypropylcellulose) (HPC)
[5] = dose: 200.0 mg/kg/injection, schedule: Q04DX003 (ip), vehicle: Klucel (hydroxypropylcellulose) (HPC)
[6] = dose: 50.0 mg/kg/injection, schedule: Q01DX005 (ip), vehicle: saline with Tween-80
[7] = dose: 200.0 mg/kg/injection, schedule: Q01DX009 (ip), vehicle: saline with Tween-80
[8] = dose: 50.0 mg/kg/injection, schedule: Q01DX009 (ip), vehicle: Klucel (hydroxypropylcellulose) (HPC)

COc1cc2c(C)cc(=O)oc2c(OCC(O)CN2CCCC2)c1OC (stereo not drawn)
survivor count (dose: 240.0 mg/kg/injection, schedule: Q01DX005 (ip), vehicle: saline): 0 of 6

COc1cccc2c1C(=O)c1c(O)c3c(c(O)c1C2=O)C[C@@](O)(CCO)C[C@@H]3OC1CC(N)C(O)C(C)O1 (stereo partly drawn)
T/C (dose: 0.39 mg/kg/injection, schedule: Q01DX009 (ip), vehicle: water): 128 % of control | T/C (dose: 4.7 mg/kg/injection, schedule: Q04DX003 (ip), vehicle: water): 128 % of control | survivor count (dose: 6.25 mg/kg/injection, schedule: Q01DX009 (ip), vehicle: water): 6 of 6 | T/C (dose: 9.4 mg/kg/injection, schedule: Q04DX003 (ip), vehicle: water): 133 % of control | survivor count (dose: 12.5 mg/kg/injection, schedule: Q01DX009 (ip), vehicle: water): 6 of 6 | T/C (dose: 18.8 mg/kg/injection, schedule: Q04DX003 (ip), vehicle: water): 146 % of control | survivor count (dose: 25.0 mg/kg/injection, schedule: Q01DX009 (ip), vehicle: water): 6 of 6 | T/C (dose: 37.5 mg/kg/injection, schedule: Q04DX003 (ip), vehicle: water): 133 and 146 % of control

O=C1C=CC(=O)c2c(O)cccc21
survivor count (dose: 3.0 mg/kg/injection, schedule: Q01DX009 (ip), vehicle: saline with Tween-80): 5 of 6 | survivor count (dose: 6.25 mg/kg/injection, schedule: Q01DX009 (ip), vehicle: saline with Tween-80): 0 of 3 and 2 of 6 | survivor count (dose: 12.5 mg/kg/injection, schedule: Q01DX009 (ip), vehicle: saline with Tween-80): 0 of 3, 0 of 6, 3 of 6 | survivor count (dose: 25.0 mg/kg/injection, schedule: Q01DX009 (ip), vehicle: saline with Tween-80): 0 of 3 and 1 of 6 | survivor count [1]: 0 of 6

C=CC(C)(C)n1cc(C2=C(O)C(=O)C(c3cn(C(C)(C)C=C)c4ccccc34)=C(O)C2=O)c2ccccc21
survivor count (dose: 2.5 mg/kg/injection, schedule: Q01DX009 (ip), vehicle: carboxymethylcellulose (CMC)): 6 of 6 | survivor count (dose: 5.0 mg/kg/injection, schedule: Q01DX009 (ip), vehicle: carboxymethylcellulose (CMC)): 6 of 6 | survivor count (dose: 10.0 mg/kg/injection, schedule: Q01DX009 (ip), vehicle: carboxymethylcellulose (CMC)): 6 of 6 | survivor count (dose: 20.0 mg/kg/injection, schedule: Q01DX009 (ip), vehicle: carboxymethylcellulose (CMC)): 6 of 6 | T/C [2]: 130 % of control | survivor count [2]: 6 of 6 | T/C (dose: 60.0 mg/kg/injection, schedule: Q01DX009 (ip), vehicle: Klucel (hydroxypropylcellulose) (HPC)): 133 % of control

CN(C)CC1CC1N1c2ccccc2Sc2ccc(Cl)cc21 (stereo not drawn)
survivor count [3]: 3 of 6

C/C(=N\NC(=S)N1CCCCCCCCCCCC1)c1ccccn1
survivor count [4]: 6 of 6 | survivor count [5]: 6 of 6 | survivor count (dose: 400.0 mg/kg/injection, schedule: Q04DX003 (ip), vehicle: Klucel (hydroxypropylcellulose) (HPC)): 0 of 6

CCOC(=O)Nc1cc2c(c(N)n1)N=C(c1ccc(Cl)cc1Cl)CN2
T/C (dose: 6.25 mg/kg/injection, schedule: Q01DX005 (ip), vehicle: saline with Tween-80): 128 % of control | T/C (dose: 12.5 mg/kg/injection, schedule: Q01DX005 (ip), vehicle: saline with Tween-80): 149 % of control | survivor count (dose: 25.0 mg/kg/injection, schedule: Q01DX005 (ip), vehicle: saline with Tween-80): 5 of 5 | survivor count [6]: 1 of 5

FC(F)(F)c1cc(Cl)nc(Cl)n1
survivor count [6]: 0 of 5 | survivor count (dose: 100.0 mg/kg/injection, schedule: Q01DX005 (ip), vehicle: saline with Tween-80): 0 of 5 | survivor count (dose: 200.0 mg/kg/injection, schedule: Q01DX005 (ip), vehicle: saline with Tween-80): 0 of 5

O=C1C(=O)N(c2ccccc2)C(=O)N1c1ccccc1
survivor count [1]: 6 of 6 | survivor count [7]: 6 of 6 | survivor count (dose: 400.0 mg/kg/injection, schedule: Q01DX009 (ip), vehicle: saline with Tween-80): 5 of 6

CC1=C(C)C(=O)O[C@@H]([C@](C)(O)[C@]2(O)CC[C@@]3(O)[C@@H]4C[C@H]5O[C@]56CC=CC(=O)[C@]6(C)[C@H]4CC[C@]23C)C1
T/C (dose: 12.5 mg/kg/injection, schedule: Q01DX009 (ip), vehicle: Klucel (hydroxypropylcellulose) (HPC)): 133 % of control | T/C (dose: 12.5 mg/kg/injection, schedule: Q04DX003 (ip), vehicle: Klucel (hydroxypropylcellulose) (HPC)): 125 % of control | T/C (dose: 25.0 mg/kg/injection, schedule: Q01DX009 (ip), vehicle: Klucel (hydroxypropylcellulose) (HPC)): 142 % of control | T/C (dose: 25.0 mg/kg/injection, schedule: Q04DX003 (ip), vehicle: Klucel (hydroxypropylcellulose) (HPC)): 125 and 128 % of control | T/C [8]: 142 % of control | survivor count [8]: 6 of 6 | T/C (dose: 50.0 mg/kg/injection, schedule: Q04DX003 (ip), vehicle: Klucel (hydroxypropylcellulose) (HPC)): 134 % of control | survivor count (dose: 100.0 mg/kg/injection, schedule: Q01DX009 (ip), vehicle: Klucel (hydroxypropylcellulose) (HPC)): 2 of 6 | T/C [4]: 131 and 134 % of control | survivor count [3]: 3 of 6 | T/C [5]: 137 and 142 % of control

CC1(C)CCC[C@]2(C)[C@@H](C=O)C(C=O)=CC[C@@H]12
survivor count (dose: 25.0 mg/kg/injection, schedule: Q01DX005 (ip), vehicle: Klucel (hydroxypropylcellulose) (HPC)): 3 of 6 and 4 of 6 | survivor count (dose: 50.0 mg/kg/injection, schedule: Q01DX005 (ip), vehicle: Klucel (hydroxypropylcellulose) (HPC)): 1 of 6 | survivor count (dose: 100.0 mg/kg/injection, schedule: Q01DX005 (ip), vehicle: Klucel (hydroxypropylcellulose) (HPC)): 0 of 6 | survivor count (dose: 200.0 mg/kg/injection, schedule: Q01DX005 (ip), vehicle: Klucel (hydroxypropylcellulose) (HPC)): 0 of 5

CCc1ccc(C(C)(C)C)cc1
T/C [7]: 127 % of control | survivor count [7]: 6 of 6 | survivor count (dose: 300.0 mg/kg/injection, schedule: Q01DX009 (ip), vehicle: saline with Tween-80): 0 of 6

Cc1c2ccncc2c(C)c2c1[nH]c1ccc(OCCN(C)C)cc12
survivor count (dose: 100.0 mg/kg/injection, schedule: Q04DX002 (ip), vehicle: water): 0 of 6 | survivor count (dose: 200.0 mg/kg/injection, schedule: Q04DX002 (ip), vehicle: water): 0 of 6

O=C1Cc2[nH]ccc2C(=O)N1
survivor count (dose: 100.0 mg/kg/injection, schedule: Q01DX001 (ip), vehicle: saline with Tween-80): 1 of 6 | survivor count (dose: 200.0 mg/kg/injection, schedule: Q01DX001 (ip), vehicle: saline with Tween-80): 1 of 6 | survivor count (dose: 400.0 mg/kg/injection, schedule: Q01DX001 (ip), vehicle: saline with Tween-80): 0 of 6

O=NN(CCCl)C(=O)Nc1ccccc1
T/C (dose: 0.13 mg/kg/injection, schedule: Q04DX003 (ip), vehicle: saline with Tween-80): 145 % of control | T/C (dose: 0.25 mg/kg/injection, schedule: Q04DX003 (ip), vehicle: saline with Tween-80): 131 % of control [5 of 6 alive] | survivor count (dose: 50.0 mg/kg/injection, schedule: Q04DX003 (ip), vehicle: saline with Tween-80): 5 of 6 | T/C (dose: 100.0 mg/kg/injection, schedule: Q04DX003 (ip), vehicle: saline with Tween-80): 136 % of control [4 of 6 alive] | survivor count (dose: 200.0 mg/kg/injection, schedule: Q04DX003 (ip), vehicle: saline with Tween-80): 4 of 6 | survivor count (dose: 400.0 mg/kg/injection, schedule: Q04DX003 (ip), vehicle: saline with Tween-80): 0 of 6

COc1ccc(C2C3=C(CCCC3=O)Oc3cc4c(cc32)OCO4)cc1 (stereo not drawn)
survivor count (dose: 120.0 mg/kg/injection, schedule: Q01DX005 (ip), vehicle: saline with Tween-80): 6 of 6 | survivor count (dose: 240.0 mg/kg/injection, schedule: Q01DX005 (ip), vehicle: saline with Tween-80): 6 of 6

O=C1OC(C(O)CO)C(O)=C1OC[N+]1(CCCl)CCN(CCCl)CC1 (stereo not drawn)
T/C (dose: 200.0 mg/kg/injection, schedule: Q01DX009 (ip), vehicle: saline): 126 % of control

CC(=O)NS(=O)(=O)c1ccc(N)cc1
T/C (dose: 200.0 mg/kg/injection, schedule: Q01DX009 (ip), vehicle: saline sonified): 127 % of control
